Experimental data from paper PMC6225478, “Natural Scaffolds with Multi-Target Activity for the Potential Treatment of Alzheimer’s Disease” (Molecules : A Journal of Synthetic Chemistry and Natural …, 2018).
Entries after “also recorded” stand apart in the source; their conditions may differ.

test: Metal-ligand interaction by UV spectrophotometry, copper; format: physicochemical; conditions: pH 7.4, copper (II)/ligand 4:1; preliminary qualitative test

Row | SMILES | Interaction with copper (II) (UV spectra)
1 | Oc1c(I)cc(Cl)c2cccnc12 [Clioquinol, reference compound] | well-known chelating compound
2 | CC[C@H](C)[C@@H]1NC(=O)C(C(C)=O)=C1O [Compound 1, Tenuazonic acid] | possible interaction; also recorded: capability of interaction with copper (II)
3 | COc1c(C)c2c(c(O)c1C/C=C(\C)CCC(=O)O)C(=O)OC2 [Compound 3, Mycophenolic acid] | possible interaction; also recorded: capability of interaction with copper (II)
4 | COc1cc(O)c2c(c1)C[C@@H](C)OC2=O [Compound 4, 6-Methoxymellein] | possible interaction
